Publication PMC8927971
For some of these results: Weaker means in comparison with the reference protein, sequence or condition of that experiment. Where a protein sequence is shown, tags need not be part of it.

Assays:
[1] = biological target: T1, CIZ1 N571ΔPLD2 del361-399 (Mus musculus) (UniProt F6ZP34); experiment: EMSA; conditions: 0.3 nM RNA; 10 mM Tris-HCl pH 7.5, 30 mM NaCl, 2.5 mM MgCl2, 0.2 mM DTT, 0.1% IGEPAL CA-630, 0.1 mg/ml yeast tRNA, 0.4 U RNaseOUT, 1% glycerol; 30 C 20 min; recombinant protein; residues 1-571; protein details: GST (N-term); label: digoxigenin-11-UTP (1:15 with UTP); probe letters rebuilt from the primers and the genome
T1 sequence (looked up): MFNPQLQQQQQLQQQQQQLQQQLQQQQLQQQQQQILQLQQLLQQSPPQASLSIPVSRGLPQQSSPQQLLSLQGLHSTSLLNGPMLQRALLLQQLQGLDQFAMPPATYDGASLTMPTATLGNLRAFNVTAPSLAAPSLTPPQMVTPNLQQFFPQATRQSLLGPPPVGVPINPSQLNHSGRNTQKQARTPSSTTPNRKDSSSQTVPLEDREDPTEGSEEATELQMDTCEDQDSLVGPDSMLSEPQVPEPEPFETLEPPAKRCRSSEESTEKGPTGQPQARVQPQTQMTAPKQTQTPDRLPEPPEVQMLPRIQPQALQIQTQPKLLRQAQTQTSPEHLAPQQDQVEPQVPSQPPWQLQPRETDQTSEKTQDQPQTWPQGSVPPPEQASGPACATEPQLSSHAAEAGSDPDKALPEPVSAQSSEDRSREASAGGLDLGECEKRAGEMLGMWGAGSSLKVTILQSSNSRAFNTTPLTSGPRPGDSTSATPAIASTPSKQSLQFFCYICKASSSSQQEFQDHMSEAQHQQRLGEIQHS

[2] = biological target: T2, CIZ1 N571ΔPLD1 del1-67 (Mus musculus) (UniProt F6ZP34); experiment: EMSA; conditions: 0.3 nM RNA, massively impaired, 10 mM Tris-HCl pH 7.5, 30 mM NaCl, 2.5 mM MgCl2, 0.2 mM DTT, 0.1% IGEPAL CA-630, 0.1 mg/ml yeast tRNA, 0.4 U RNaseOUT, 1% glycerol, 30 C 20 min, recombinant protein, residues 68-571, protein details: GST (N-term), label: digoxigenin-11-UTP (1:15 with UTP), probe letters rebuilt from the primers and the genome
T2 sequence (looked up): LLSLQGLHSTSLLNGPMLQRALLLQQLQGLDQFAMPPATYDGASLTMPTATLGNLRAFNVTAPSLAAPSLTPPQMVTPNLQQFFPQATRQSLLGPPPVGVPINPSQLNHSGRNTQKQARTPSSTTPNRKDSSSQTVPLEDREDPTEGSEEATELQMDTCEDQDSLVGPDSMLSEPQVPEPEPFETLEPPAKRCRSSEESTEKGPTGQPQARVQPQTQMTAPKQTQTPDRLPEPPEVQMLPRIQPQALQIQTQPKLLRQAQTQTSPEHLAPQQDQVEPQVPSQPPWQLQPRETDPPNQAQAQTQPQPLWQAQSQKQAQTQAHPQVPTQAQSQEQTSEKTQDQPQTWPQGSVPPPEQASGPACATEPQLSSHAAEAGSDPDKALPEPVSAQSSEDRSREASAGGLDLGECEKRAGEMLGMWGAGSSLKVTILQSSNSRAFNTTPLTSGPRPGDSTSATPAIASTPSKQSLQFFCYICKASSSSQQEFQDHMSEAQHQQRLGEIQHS

Sequence	half-maximal binding [1] [nM]	binding result ([2]; more than for repeat E)	binding result ([2]; less than for repeat A)
GGGAGCUUGCUCCAGCCAUGUUUGCUCGUUUCCCGUGGAUGUGCGGUUCUUCCGUGGUUUCUCUCCAUCUAAGGAGCUUUGGGGGAACAUUUUUAGUUCCCCUACCACCAAGCCUUAUGGCUUAUUUAAGAAAACAUAUCAAAAUUCCACGAGAUUUUUGACGUUUUGAUAUGUUCUGGUAAGAUUUUUUUUUUGACAUGUCCUCCAUACUUUUUGAUAUUUGUAAUAUUUUCAGUCAAUUUUUCAUUUUUAAGGAAUAUUUCUUUGUUGUGCCUUUUGGUUGAUACUUGUGUGUGUAUGGUGGACUUACCUUUCUUUCAUUGUUUAUAUAUUCUUGCCCAUCGGGGCCACGGAUACCUGUGUGUCCUCCCCGCCAUUCCAUGCCCAACGGGGUUUUGGAUACUUACCUGCCUUUUCAUUCUUUUUUUUUCUUAUUAUUUUUUUUUCUAAACUUGCCCAUCUGGGCUGUGGAUACCUGCUUUUAUUCUUUUUUUCUUCUCCUUAG [Xist repeat A]	100	binds more weakly	
GGGAGAUUUCUUCCUUGCAGUUGUGUCUAAUUCUUUGUUACAUCUAUUUCUUCCUUGCUUUUGUGUGUCUAUUUCUUCCUUGCAUUGUGUCUAAUUCUUUGGUAUAUAUAUUUCUUCAUUGCUUUGUGUGUCUAUGUCUCCUUGUGUUGUCUAAUUCGUUGUUGCAUCUAUUUCUUCCUUGCUUUGUGUGUCUAUUUCUUCCUUGCUUUGUGUGUCUAUGUCUUCCUUGCUUUGUGUGUCUAUGUCUUCCUUGUUUUGUGUAUCUACUUCUUCCUUGUGUGUCUAAUUCUUUGUUACAUCUAUUUCUUCCUUCCUUUGCAUGUCUCCUUCUUUCCUUUGUGUGUCUUUUCUGUCUGCAGUGUGUCUUACCUAUUCCCAUGUUUCUCCUGCAUGUUCUUUCUUGCAGAGCUUUGAGCUUUGUUUCACUUUCUCUGGUGCCUGUGUGGUCUGCUUUGUCUUCACUAGCUAUGGCUCUCUGU [Xist repeat E proximal]	100		binds more weakly
